Some of the results follow.
system: T1, CTL2-GFP (C. trachomatis L2/434/Bu, GFP-expressing); parameters: species or system HeLa; Intracellular C. trachomatis growth in HeLa cells, bulk GFP fluorescence relative to DMSO; conditions: bulk GFP, single well; 28.5 h, 10 µM; inhibitor
T1 construct: L2/434/Bu, GFP-expressing

SMILES | % of control remaining
Cc1oc2ncn(Cc3ccccc3)c(=N)c2c1C [CBK288160] | 117.167%
O=C(Nc1cccc(Cl)c1)c1cccc(NC(=O)c2ccccc2C(=O)O)c1 [CBK287122] | 136.152%
O=C(Nc1ccc(F)cc1)c1ccc(NS(=O)(=O)c2ccc(Br)cc2)cc1 [CBK050400] | 49.2858%
COCc1cccc(-c2ncc(OCCN3CCCC3=O)nc2NC(C)=O)c1 [CBK145239] | 118.169%
CCC1(CC)CCN(C(=O)CCn2ccc3ccncc32)C1 [CBK285176] | 118.809%
Cn1ccnc1C1(O)CC2CCC(C1)N2C(=O)c1c(F)cccc1F (stereo not shown) [CBK284092] | 108.422%
CN1C(=O)c2ccccc2OCCCCC[C@H]2[C@@H]1CCCN2C(=O)c1ccccc1Cn1cncn1 [CBK292114] | 70.9071%
Cc1csc(C(Cc2ccsc2)NCc2cccnc2)n1 (stereo not shown) [CBK285020] | 106.634%
COc1ccc2cc([C@@H](O)C[C@@H](C)O)c(Cl)nc2c1 [CBK022146] | 136.267%
O=C(O)[C@H]1Nc2ccc(Br)cc2[C@H]2[C@H](O)[C@H](O)C[C@H]21 [CBK303242] | 74.5089%
CC(C)OC(=O)[C@@H]1CCN(C(=O)CCC2NC(=O)NC2=O)[C@@H]1c1ccc(F)cc1 (stereo partly shown) [CBK285520] | 86.2752%
Cn1nccc1NS(=O)(=O)c1ccc(-c2cnco2)s1 [CBK062088] | 63.5759%
O=C(O)Cc1ccc(OCC(=O)NCc2ccc(Cl)cc2Cl)cc1 [CBK296628] | 84.028%
O=C(CCc1c[nH]c2ccccc12)Nc1ccccc1C(=O)O [CBK287242] | 112.604%
CNCC(=O)N1CCN(C(=O)c2ccc(Cl)cc2Cl)CC1 [CBK029576] | 100%
CC(C)Cn1c(=O)[nH]c2ncc(-c3ccc(O)cc3)nc21 [CBK065011] | 78.7063%
O=C(O)C1CCCN(C(=O)Cc2csc(COc3ccc(Cl)cc3)n2)C1 (stereo not shown) [CBK304501] | 159.664%
O=S(=O)(Nc1nc(-c2ccccc2Cl)cs1)c1sc(Cl)cc1Br [CBK200028] | 110.531%
CN(C1CCCCC1)S(=O)(=O)NCCc1cn2ccccc2n1 [CBK305576] | 91.364%
COc1ccnc(N2CCN(C(=O)c3cc(C)nn3C)CC2)n1 [CBK305967] | 126.515%
COc1ccc(CCNc2ncnc3[nH]cnc23)cc1OC [CBK134342] | 157.498%
Cc1cc(NC(=O)C2CCN(C(=O)c3c(F)cccc3F)CC2)no1 [CBK304359] | 91.0455%

Copied from above (2 entries):
SMILES | % of control remaining
COc1ccc(CCNc2ncnc3[nH]cnc23)cc1OC [CBK134342] | 157.498%
Cc1cc(NC(=O)C2CCN(C(=O)c3c(F)cccc3F)CC2)no1 [CBK304359] | 91.0455%

— PMC12040169 (PLOS Biology, 2025)
